{
  "source": "paper PMC3561153",
  "binders": {"B1": {"name": "Pto (enzyme, UniProt Q40234 1-321)", "chain": "MGSKYSKATNSINDALSSSYLVPFESYRVPLVDLEEATNNFDHKFLIGHGVFGKVYKGVLRDGAKVALKRRTPESSQGIEEFETEIETLSFCRHPHLVSLIGFCDERNEMILIYKYMENGNLKRHLYGSDLPTMSMSWEQRLEICIGAARGLHYLHTRAIIHRDVKSINILLDENFVPKITDFGISKKGTELDQTHLSTVVKGTLGYIDPEYFIKGRLTEKSDVYSFGVVLFEVLCARSAIVQSLPREMVNLAEWAVESHNNGQLEQIVDPNLADKIRPESLRKFGDTAVKCLALSSEDRPSMGDVLWKLEYALRLQESVI"}, "B2": {"name": "pto^T199A-FLAG (enzyme, UniProt Q40234 1-321)", "chain": "B1 chain with T199A"}, "B3": {"name": "pto^S198A/T199A-FLAG (enzyme, UniProt Q40234 1-321)", "chain": "B1 chain with S198A, T199A"}, "B4": {"name": "Pto-5Myc (enzyme, UniProt Q40234 1-321)", "chain": "B1 chain"}, "B5": {"name": "Pto-FLAG (enzyme, UniProt Q40234 1-321)", "chain": "B1 chain"}, "B6": {"name": "pto^D164N-FLAG (enzyme, UniProt Q40234 1-321)", "chain": "B1 chain with D164N"}, "B7": {"name": "pto^S198A-FLAG (enzyme, UniProt Q40234 1-321)", "chain": "B1 chain with S198A"}},
  "experiment_in_all_cases": "co-IP; extracts of N. benthamiana leaves (transient expression; some in stable 35S:Pto plants; with or without co-expressed AvrPto, AvrPtoB or avrPtoB^F479A); HA-tagged Prf forms precipitated on anti-HA HA-7 Sepharose, 2 h at 4°C; 150 mM Tris-HCl pH 7.5, 150 mM NaCl, 5 mM EDTA, 5% glycerol, 10 mM DTT; immunoblots",
  "key": {"[1]": {"target": "N-term-3HA (prf^1–546-3HA) (tomato)"}, "prf^D1416V-3HA (tomato)": {"target": "prf^D1416V-3HA (tomato)"}, "Prf-3HA (tomato)": {"target": "Prf-3HA (tomato) (UniProt Q96485)"}, "prf^K1128A-3HA (tomato)": {"target": "prf^K1128A-3HA (tomato)"}},
  "note": "Positions count from the first letter of the chain named. Names and notes keep the numbering of the source. Results are given in words; binding and its absence hold for the method and conditions named. Binding seen in cells or lysates may run through a third protein. Binding calls can cover weak binding; strength is not graded here. For some of these results: Sequences can lack the tags named with a protein.",
  "data": [
    {"binder": "B1", "values": [
      {"measurement": "binding", "setting": "[1]", "result": "binds"},
      {"measurement": "binding", "setting": "prf^D1416V-3HA (tomato)", "result": "binds"},
      {"measurement": "binding", "setting": "Prf-3HA (tomato)", "result": "binds"},
      {"measurement": "binding", "setting": "prf^K1128A-3HA (tomato)", "result": "binds"}
    ]},
    {"binder": "B2", "values": [
      {"measurement": "binding", "setting": "Prf-3HA (tomato)", "result": "binds"}
    ]},
    {"binder": "B3", "values": [
      {"measurement": "binding", "setting": "Prf-3HA (tomato)", "result": "binds"}
    ]},
    {"binder": "B4", "values": [
      {"measurement": "binding", "setting": "Prf-3HA (tomato)", "result": "binds"}
    ]},
    {"binder": "B5", "values": [
      {"measurement": "binding", "setting": "Prf-3HA (tomato)", "result": "binds"}
    ]},
    {"binder": "B6", "values": [
      {"measurement": "binding", "setting": "Prf-3HA (tomato)", "result": "binds"}
    ]},
    {"binder": "B7", "values": [
      {"measurement": "binding", "setting": "Prf-3HA (tomato)", "result": "binds"}
    ]}
  ]
}
